Assay results as given in PMC4996535.

Molecular target: T1, syndecan-1 (SDC1) of human placenta, carrying placental chondroitin sulfate (human (endogenous in placenta)) (UniProt P18827)
T1 sequence (chain, chondroitin sulfate chains (placental CS)): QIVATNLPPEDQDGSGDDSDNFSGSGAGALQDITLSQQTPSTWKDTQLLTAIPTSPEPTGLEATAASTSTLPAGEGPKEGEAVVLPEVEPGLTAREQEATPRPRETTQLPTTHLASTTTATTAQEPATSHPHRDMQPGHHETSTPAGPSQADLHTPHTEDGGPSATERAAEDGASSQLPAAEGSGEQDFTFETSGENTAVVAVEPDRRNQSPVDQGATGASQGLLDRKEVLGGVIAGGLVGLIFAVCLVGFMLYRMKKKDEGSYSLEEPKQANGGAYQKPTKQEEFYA
Assay: parasite adhesion assay; placental proteoglycan extract captured on spots coated with anti-SDC1 antibody (B-A38); 5 x 10^6 infected erythrocytes/ml in PBS with 2% FBS settled 20 minutes at RT; controls: isotype IgG, 400 ug/ml soluble CSA, extract pre-digested with Chondroitinase ABC

## VAR2CSA on infected erythrocytes (FCR3 parasites selected on BeWo cells) (Plasmodium falciparum (FCR3))
  binding: binds

These are yes or no findings as the source states them, for the method shown. Binding calls can cover weak binding; strength is not graded here.
